Laboratory results as given in patent US7402310B2, “Deoxyribonuclease, gene encoding same and use thereof” (priority 2001, dated 2008).

System: HeLa S3 cells
Assay: Intracellular/extracellular presence ratio in transfected HeLa S3 cells (Western blot)
Format: cell-based, human
Details: 48 hr after transfection

B1: DLAD: novel acid DNase cleaving DNA independently from divalent cations; mouse, amino acid Nos. 1 to 332 of SEQ ID NO: 1 (protein, listed as Mus musculus)
chain: MTAKPLRTVLSLLFFALSGVLGTPEISCRNEYGEAVDWFIFYKLPKRTSKASEEAGLQYLYLDSTRQTWNKSLYLINSTRSALGRTLQHLYDTHNSTNDTAYLIYNDGVPGSVNYSRQYGHAKGLLVWNRTQGFWLIHSVPKFPPVHGYEYPTSGRRYGQTGICITFGYSQFEEIDFQLLVLQPNIYSCFIPSTFHWKLIYMPRMCANSSSLKIPVRYLAELHSAQGLNFVHFAKSSFYTDDIFTGWIAQKLKTHLLAQTWQKKKQELPSNCSLPYHVYNIKSIGVTSKSYFSSRQDHSKWCVSIKGSANRWTCIGDLNRSLHQALRGGGFI
Share of protein in extracellular fraction (medium): about 30% | Share of protein retained within the cells: about 70%
